Results are given in words; binding and its absence hold for the method and conditions named. Some entries that bind do so weakly or less than the wild type. Each block holds one binder with its values, some of them ahead of it.
Experiments:
[1] = biological target: Human CD40L, recombinant (E. coli produced) (human) (UniProt P29965); assay: capture ELISA; Tn3 captured on anti-His, HuCD40L/biotinylated anti-His complex
[2] = biological target: TRAIL R2, recombinant (format not stated) (human) (UniProt O14763); assay: capture ELISA
[3] = biological target: Human CD40L, recombinant (E. coli produced) (human) (UniProt P29965); assay: capture ELISA
[4] = biological target: Human CD40L, recombinant (E. coli produced) (human) (UniProt P29965); assay: AlphaScreen bridging assay: diluted E. coli media, 10 nM TRAIL R2-Fc (Protein A acceptor beads) and 50 nM biotinylated HuCD40L (streptavidin donor beads); signal needs both targets bound at once
[5] = biological target: human TRAIL R2-Fc fusion protein (human) (UniProt O14763); assay: as above
[6] = biological target: Human CD40L, recombinant (E. coli produced) (human) (UniProt P29965); assay: AlphaScreen; 10 nM TRAIL R2-Fc and 50 nM biotinylated HuCD40L, simultaneous binding
[7] = biological target: human TRAIL R2-Fc fusion protein (human) (UniProt O14763); assay: as above
[8] = biological target: Human CD40L, recombinant (E. coli produced) (human) (UniProt P29965); assay: capture ELISA: His-tagged construct captured from E. coli media on anti-His antibody, His-tagged HuCD40L preincubated with biotinylated anti-His antibody titrated, streptavidin-HRP/TMB
[9] = biological target: human TRAIL R2-Fc fusion protein (human) (UniProt O14763); assay: capture ELISA: His-tagged construct captured from E. coli media on anti-His antibody, biotinylated TRAIL R2 (axis: TrailR2-Fc) titrated, streptavidin-HRP/TMB
[10] = biological target: TRAIL R2, recombinant (format not stated) (human) (UniProt O14763); assay: capture ELISA; Tn3 captured on anti-His, biotinylated TRAIL R2
[11] = biological target: Human CD40L, recombinant (E. coli produced) (human) (UniProt P29965); assay: AlphaScreen
[12] = biological target: human TRAIL R2-Fc fusion protein (human) (UniProt O14763); assay: AlphaScreen
[13] = biological target: recombinant Murine CD40L (E. coli produced) (murine) (UniProt P27548); assay: SPR competition; 0.5 ug/ml MuCD40L over immobilized Murine CD40-Fc
[14] = biological target: human TRAIL R2-Fc fusion protein (human) (UniProt O14763); assay: competition ELISA: plate coated with A9(1C12), 0.75 nM biotinylated TRAIL R2-Fc, competitor titrated, streptavidin-HRP/TMB
[15] = biological target: recombinant Murine CD40L (E. coli produced) (murine) (UniProt P27548); assay: SPR competition (GLC chip): 0.5 ug/ml MuCD40L preincubated with the Tn3 construct, binding to immobilised Murine CD40-Fc recorded

The chains behind the UniProt entries cited, without tags or fusion partners. Residues count along the entry.
UniProt P29965, residues 113-261: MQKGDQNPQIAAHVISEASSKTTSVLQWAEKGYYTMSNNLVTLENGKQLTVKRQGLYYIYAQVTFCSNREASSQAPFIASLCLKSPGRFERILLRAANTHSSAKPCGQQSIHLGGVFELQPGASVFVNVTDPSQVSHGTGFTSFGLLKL
UniProt O14763, residues 54-182: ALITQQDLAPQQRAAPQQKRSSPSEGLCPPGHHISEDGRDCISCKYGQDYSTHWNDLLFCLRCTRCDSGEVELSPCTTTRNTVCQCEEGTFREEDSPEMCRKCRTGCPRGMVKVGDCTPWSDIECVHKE
UniProt P27548, residues 112-260: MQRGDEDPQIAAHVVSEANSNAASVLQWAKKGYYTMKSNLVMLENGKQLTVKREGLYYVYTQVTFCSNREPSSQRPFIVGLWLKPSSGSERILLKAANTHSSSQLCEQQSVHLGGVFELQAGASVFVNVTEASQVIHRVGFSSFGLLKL

binding [1]: binds
binding [2]: binds
binding [3]: binds
binding [4]: binds
binding [5]: binds
binding [6]: binds
binding [7]: binds
binding [8]: binds
binding [9]: binds
binding [10]: binds
binding [11]: binds
binding [12]: binds
B1: C5 (1E11 & 79), bispecific tandem Tn3, linker length 8 (designed binder)
chain: AIEVKDVTDTTALITWAKPWVDPPPLWGCELAYGIKDVPGDRTTIDLQQKHTAYSIGNLKPDTEYEVSLICFDPYGAKSNPAKETFTTTRLDAPGQIEVKDVTDTTALITWIPPHNADSSIIGCELTYGIKDVPGDRTTIDLYDVAFDYSIGNLKPDTEYEVSLICDTFYGFDSNPAKETFTTGGGTLGHHHHHHHH

binding [13]: binds
B2: C2 (M13), bivalent tandem M13-M13, 3 Gly4Ser units, linker length 23 (designed binder)
chain: AIEVKDVTDTTALITWHDAFGYDFGCELTYGIKDVPGDRTTIDLPDHFHNYSIGNLKPDTEYEVSLICANDHGFDSNPAKETFTTGGGGSGGGGSGGGGSRLDAPGQIEVKDVTDTTALITWHDAFGYDFGCELTYGIKDVPGDRTTIDLPDHFHNYSIGNLKPDTEYEVSLICANDHGFDSNPAKETFTTGGGTLGHHHHHHHH

binding [13]: binds
B3: C3 (M13), bivalent tandem M13-M13, 5 Gly4Ser units, linker length 33 (designed binder)
chain: AIEVKDVTDTTALITWHDAFGYDFGCELTYGIKDVPGDRTTIDLPDHFHNYSIGNLKPDTEYEVSLICANDHGFDSNPAKETFTTGGGGSGGGGSGGGGSGGGGSGGGGSRLDAPGQIEVKDVTDTTALITWHDAFGYDFGCELTYGIKDVPGDRTTIDLPDHFHNYSIGNLKPDTEYEVSLICANDHGFDSNPAKETFTTGGGTLGHHHHHHHH

binding [14]: binds
B4: A2 (1E11), bivalent linear tandem Tn3 (designed binder)
chain: SGGGGSAIEVKDVTDTTALITWAKPWVDPPPLWGCELAYGIKDVPGDRTTIDLQQKHTAYSIGNLKPDTEYEVSLICFDPYGAKSNPAKETFTTGGGGSGGGGSGGGGSAIEVKDVTDTTALITWAKPWVDPPPLWGCELAYGIKDVPGDRTTIDLQQKHTAYSIGNLKPDTEYEVSLICFDPYGAKSNPAKETFTTGGGGSGGGGSGTLGHHHHHHHH

binding [15]: binds
B5: M13, monovalent murine CD40L-specific Tn3 (designed binder)
chain: AIEVKDVTDTTALITWHDAFGYDFGCELTYGIKDVPGDRTTIDLPDHFHNYSIGNLKPDTEYEVSLICANDHGFDSNPAKETFTTGGGTLGHHHHHHHH

binding [1]: binds
binding [2]: binds
binding [3]: binds
binding [4]: binds
binding [5]: binds
binding [6]: binds
binding [7]: binds
binding [8]: binds
binding [9]: binds
binding [10]: binds
binding [11]: binds
binding [12]: binds
B6: C7 (1E11 & 79), bispecific tandem Tn3, linker length 18 (designed binder)
chain: AIEVKDVTDTTALITWAKPWVDPPPLWGCELAYGIKDVPGDRTTIDLQQKHTAYSIGNLKPDTEYEVSLICFDPYGAKSNPAKETFTTGGGGSGGGGSRLDAPGQIEVKDVTDTTALITWIPPHNADSSIIGCELTYGIKDVPGDRTTIDLYDVAFDYSIGNLKPDTEYEVSLICDTFYGFDSNPAKETFTTGGGTLGHHHHHHHH

binding [14]: binds
binding [9]: binds
binding [10]: binds
B7: A1 (1E11), monovalent TRAIL R2-specific Tn3 scaffold (designed binder)
chain: AIEVKDVTDTTALITWAKPWVDPPPLWGCELAYGIKDVPGDRTTIDLQQKHTAYSIGNLKPDTEYEVSLICFDPYGAKSNPAKETFTTGGGTLGHHHHHHHH

binding [15]: binds
B8: C1 (M13), bivalent tandem M13-M13, 1 Gly4Ser unit, linker length 13 (designed binder)
chain: AIEVKDVTDTTALITWHDAFGYDFGCELTYGIKDVPGDRTTIDLPDHFHNYSIGNLKPDTEYEVSLICANDHGFDSNPAKETFTTAGGGGSRLDAPGQIEVKDVTDTTALITWHDAFGYDFGCELTYGIKDVPGDRTTIDLPDHFHNYSIGNLKPDTEYEVSLICANDHGFDSNPAKETFTTGGGTLGHHHHHHHH

binding [14]: binds
B9: A3 (1E11), tetravalent linear tandem Tn3 (designed binder)
chain: SGGGGSAIEVKDVTDTTALITWAKPWVDPPPLWGCELAYGIKDVPGDRTTIDLQQKHTAYSIGNLKPDTEYEVSLICFDPYGAKSNPAKETFTTGGGGSGGGGSGGGGSAIEVKDVTDTTALITWAKPWVDPPPLWGCELAYGIKDVPGDRTTIDLQQKHTAYSIGNLKPDTEYEVSLICFDPYGAKSNPAKETFTTGGGGSGGGGSGGGGSAIEVKDVTDTTALITWAKPWVDPPPLWGCELAYGIKDVPGDRTTIDLQQKHTAYSIGNLKPDTEYEVSLICFDPYGAKSNPAKETFTTGGGGSGGGGSGGGGSAIEVKDVTDTTALITWAKPWVDPPPLWGCELAYGIKDVPGDRTTIDLQQKHTAYSIGNLKPDTEYEVSLICFDPYGAKSNPAKETFTTGGGGSGGGGSGTLGHHHHHHHH

binding [1]: binds
binding [2]: binds
binding [3]: binds
binding [4]: binds
binding [5]: binds
binding [6]: binds
binding [7]: binds
binding [8]: binds
binding [9]: binds
binding [10]: binds
binding [11]: binds
binding [12]: binds
B10: C8 (1E11 & 79), bispecific tandem Tn3, linker length 23 (designed binder)
chain: AIEVKDVTDTTALITWAKPWVDPPPLWGCELAYGIKDVPGDRTTIDLQQKHTAYSIGNLKPDTEYEVSLICFDPYGAKSNPAKETFTTGGGGSGGGGSGGGGSRLDAPGQIEVKDVTDTTALITWIPPHNADSSIIGCELTYGIKDVPGDRTTIDLYDVAFDYSIGNLKPDTEYEVSLICDTFYGFDSNPAKETFTTGGGTLGHHHHHHHH

binding [1]: binds
binding [2]: binds
binding [3]: binds
binding [4]: binds
binding [5]: binds
binding [6]: binds
binding [7]: binds
binding [8]: binds
binding [9]: binds
binding [10]: binds
binding [11]: binds
binding [12]: binds
B11: C6 (1E11 & 79), bispecific tandem Tn3, linker length 13 (designed binder)
chain: AIEVKDVTDTTALITWAKPWVDPPPLWGCELAYGIKDVPGDRTTIDLQQKHTAYSIGNLKPDTEYEVSLICFDPYGAKSNPAKETFTTGGGGSRLDAPGQIEVKDVTDTTALITWIPPHNADSSIIGCELTYGIKDVPGDRTTIDLYDVAFDYSIGNLKPDTEYEVSLICDTFYGFDSNPAKETFTTGGGTLGHHHHHHHH

binding [1]: binds
binding [8]: binds
B12: 79, monovalent human CD40L-specific Tn3 (designed binder)
chain: IEVKDVTDTTALITWIPPHNADSSIIGCELTYGIKDVPGDRTTIDLYDVAFDYSIGNLKPDTEYEVSLICDTFYGFDSNPAKETFTTGGGTLGHHHHHHHH

binding [13]: binds
B13: C4 (M13), bivalent tandem M13-M13, 7 Gly4Ser units, linker length 43 (designed binder)
chain: AIEVKDVTDTTALITWHDAFGYDFGCELTYGIKDVPGDRTTIDLPDHFHNYSIGNLKPDTEYEVSLICANDHGFDSNPAKETFTTGGGGSGGGGSGGGGSGGGGSGGGGSGGGGSGGGGSRLDAPGQIEVKDVTDTTALITWHDAFGYDFGCELTYGIKDVPGDRTTIDLPDHFHNYSIGNLKPDTEYEVSLICANDHGFDSNPAKETFTTGGGTLGHHHHHHHH

From patent publication US20130079280A1
